Results taken from US20020049313A1, “Method for introducing foreign material into higher eukaryotic cells” (priority 1994, published 2002).
At least one compound was matched to its structure with a doubt left.

Test system: primary human fibroblasts
Test: Luciferase gene expression after adenovirus-aided transferrinfection of primary human fibroblasts
Format: cell-based
Procedure: Samples of biotinylated, psoralen/UV-inactivated adenovirus dl1014 (8 μl, 1×10^12 particles/ml) were diluted in 150 μl of HBS and mixed with 1 μg of StpL in […] of HBS for 30 minutes at ambient temperature. Aliquots of 6 μg of plasmid DNA (in the case of mixtures of pCMVL-DNA and another plasmid the ratio was 5:1) were diluted in 100 μl of HBS and then mixed with the adenovirus/StpL solution for 30 minutes at ambient temperature. Finally, a 100 μl aliquot of HBS, containing 5 μg of TfpL, was added to each sample, followed by 30 minutes' incubation at ambient temperature.
After surgical removal, skin biopsies were added to 4° C. DMEM containing 10% heat-inactivated FCS, 2 mM glutamine and gentamycin. The biopsies were carefully cut up in a tissue culture device using forceps and a surgical blade in a laminar air current in sterile 6 cm plastic dishes. Then 3 ml of DMEM, containing 20% FCS, 2 mM glutamine and antibiotics were added and the culture was placed in an incubator at 37° C. After 10 days the medium was replaced by DMEM containing 10% FCS. Then the medium was changed a further 2 times a week. 4 weeks after the start of cultivation the cells which had grown out of the tissue fragments were trypsinised and plated out into new culture dishes for transfection.
The luciferase activity was determined as described in WO 93/07283.
First of all, a series of experiments were carried out intended to establish whether the expression of certain adenovirus genes is capable of intensifying gene expression after transferrinfection. A defined quantity of the luciferase expression plasmid pCMVL (5 μg) was mixed with various plasmid DNA (1 μg in each), incorporated in TfpL/StpL/adenovirus transfection complexes (total volume 500 μl) and applied to primary human fibroblasts (50 μl of complex were applied to 2×10^4 cells per well in a 24-well plate, corresponding to 2.5×10^4 virus particles per cell, the measurements being carried out three times. In FIG. 4 “minus” denotes pSP65; the test DNA is specified in each case). The luciferase activity obtained was measured 48 to 72 hours after transfection. […] The E1 region contains two main gene functions, E1A and E1B. (The E1A products have the effect of separating E2F from the Rb protein and on the other hand they modulate the transcription activity of numerous cellular and adenovirus promoters. The main transcription-transactivator function is contained in the 13S gene product. The 1B gene codes for two main functions: the E1B 55K gene product binds p53 and changes its function. It is assumed that the 19K E1B gene product acts underneath p53 in order to block the apoptotic response).
In order to do this, transfection complexes containing pCMVL plus the plasmid pSP65, or the plasmids which contained the sequence for Bcl-2, E1A or E1B 19K (the quantities of reporter plasmid pCMVL and the relevant test plasmid were 5 μg and 1 μg, respectively, as in the previous Example), with virus particle numbers of 3×10^4 (FIG. 5A), 10^4 (FIG. 5B) or 3×10^3 (FIG. 5C) per cell were applied to primary fibroblasts and the luciferase activity was measured over a period of time. The transfections were carried out as described in the preceding Examples, the cells being given 6, 18 or 60 μl of transfection complex per well, containing 2×10^4 fibroblasts. […]

C[C@@H]1C[C@H]2[C@@H]3CCC4=CC(=O)C=C[C@]4(C)[C@@]3(F)[C@@H](O)C[C@]2(C)[C@@]1(O)C(=O)CO [Dexamethasone, dexamethasone]
effect on gene expression (luciferase) over time (10 μM dexamethasone or 2 mM Aspirin from 2 hours after transfection, with and without E1B 19K): increase in gene expression both in the presence and in the absence of E1B 19K
interaction with the E1B 19K gene in increase of gene expression (10 μM dexamethasone or 2 mM Aspirin, pCMV19K co-transfected): synergistic effect
improvement in gene expression (absence of E1B 19K, dexamethasone 10 μM, ibuprofen 100 μM, 5,8,11-eicosatriynoic acid 30 μM): substantial improvement in gene expression
improvement in gene expression (dexamethasone 10 μM, 5,8,11-eicosatriynoic acid 30 μM, NDGA 10 μM, ibuprofen 30 μM, aspirin 2 mM): clearest improvement
effect on gene expression (presence of E1B 19K, dexamethasone 10 μM, 5,8,11-eicosatriynoic acid 30 μM): synergistic effect
